Results deposited as PubChem BioAssay AID720505 (Drosophila RNAi Screening Center, 2013).
Aim: 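Genes needed for store-operated calcium entry in fly cells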 (primary screen). Cells: Drosophila S2R+ cells. Reagent: long dsRNA against Drosophila genes. Challenge: thapsigargin (2 µM) in calcium-free buffer to empty internal stores, then 2 mM calcium added back. Measurement: 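Fluo-4 signal in 384-well plates read on a FLIPR after thapsigargin (2 µM, calcium-free) store depletion and 2 mM calcium add-back; unnormalised mean endpoint per well; screen run twice, selected wells retested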. Reading the numbers: calcium signal and retest calcium signal: higher = more calcium entry after store depletion. Active means: 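Knock-downs counted as hits when calcium entry dropped relative to STIM1 positive and Rho1 negative controls present on each plate; roughly 1500 genes called, with reductions of differing size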. Meaning of the calls: active = called as lowering calcium entry; inactive = not called.
The screen tested about 20,000 reagents; this is an unselected part of those that have a named target and a result. In the full data, about 2,100 (10%) were called active. 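Raw plate signals without normalisation; calls rest on control-based scores that were not deposited; replicate 2 separates called from uncalled poorly.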 The numbers tell different reagents against one gene apart. Names joined by + are all predicted targets of the reagent. No sequences are given here. The record does not give: the amount of reagent, the time to read-out.

gene,reagent no.,"calcium signal, replicate 1","calcium signal, replicate 2","retest calcium signal, replicate 1","retest calcium signal, replicate 2",Call
CG43103,1,154,97.4,,,inactive
CG14968,1,77.8,109,,,inactive
mAcon2,1,88.2,115,,,inactive
slp1,1,137,224,,,inactive
RabX1,1,182,213,,,inactive
CG2604,1,107,76.5,,,inactive
CAH6,1,197,146,,,inactive
ECSIT,1,130,175,,,inactive
hpRNA:CR18854,1,167,138,,,inactive
qua,1,117,98.8,,,inactive
HSPC300,1,88,104,,,inactive
CG32988,1,82.3,80.3,,,active
CG7992,1,153,85.5,,,inactive
BomBc2,1,223,157,,,inactive
Gbeta5,1,164,141,,,inactive
asRNA:CR43159 + yellow-k,1,86,118,,,inactive
Or10a,1,95.1,87.4,,,inactive
stg,1,73.9,76.6,,,active
defl,1,61.5,79.4,,,active
Hsp70Bb + Hsp70Bbb,1,163,139,87.8,99.8,inactive
BuGZ,1,98.3,126,,,inactive
BuGZ,2,83.5,98.9,,,inactive
CG7091,1,102,99.9,,,inactive
CG43996 + CG43997,1,93.5,124,,,inactive
CG43996 + CG43997,2,117,131,,,inactive
RpL22-like,1,88.5,132,,,inactive
spri,1,90.2,117,,,inactive
spri,2,101,86.5,,,inactive
spri,3,96.9,83.2,,,inactive
spri,4,74.1,107,,,inactive
spri,5,82.8,119,,,inactive
spri,6,84.5,115,,,inactive
spri,7,125,200,,,inactive
hfw,1,76,169,,,inactive

Reprinted from the listing for reference:
gene,reagent no.,"calcium signal, replicate 1","calcium signal, replicate 2","retest calcium signal, replicate 1","retest calcium signal, replicate 2",Call
RabX1,1,182,213,,,inactive
CG2604,1,107,76.5,,,inactive
CAH6,1,197,146,,,inactive
